No constants are given. Whether binding was seen depends on the method and setting. In cells and extracts the contact can be indirect. Some binding calls cover weakened binding; strength is not graded here. Tags and fused reporters may be left off the sequences shown.
Molecular target: T1, His-TRAF2 (UniProt Q12933)
T1 sequence: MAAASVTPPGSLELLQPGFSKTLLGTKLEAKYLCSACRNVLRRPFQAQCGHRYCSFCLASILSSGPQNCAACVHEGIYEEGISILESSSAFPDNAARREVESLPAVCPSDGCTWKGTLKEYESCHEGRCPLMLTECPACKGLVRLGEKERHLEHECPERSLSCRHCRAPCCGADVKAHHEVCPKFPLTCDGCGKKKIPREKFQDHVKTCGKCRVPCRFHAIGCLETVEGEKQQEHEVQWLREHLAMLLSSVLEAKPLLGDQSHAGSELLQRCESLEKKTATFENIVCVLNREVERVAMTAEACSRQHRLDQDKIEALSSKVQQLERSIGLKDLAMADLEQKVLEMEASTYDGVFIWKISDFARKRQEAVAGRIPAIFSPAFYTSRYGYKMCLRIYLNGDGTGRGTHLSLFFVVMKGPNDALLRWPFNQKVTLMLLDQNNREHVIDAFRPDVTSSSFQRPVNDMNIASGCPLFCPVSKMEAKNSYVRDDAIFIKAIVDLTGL
Assay: co-IP; 293T cells transfected with His-TRAF2 and Myc-SMYD (1-5) plasmids; Co-IP with antibodies against His or Myc

Sequences of proteins named here, by UniProt entry; tags and fusion partners are left off.
UniProt Q9NRG4: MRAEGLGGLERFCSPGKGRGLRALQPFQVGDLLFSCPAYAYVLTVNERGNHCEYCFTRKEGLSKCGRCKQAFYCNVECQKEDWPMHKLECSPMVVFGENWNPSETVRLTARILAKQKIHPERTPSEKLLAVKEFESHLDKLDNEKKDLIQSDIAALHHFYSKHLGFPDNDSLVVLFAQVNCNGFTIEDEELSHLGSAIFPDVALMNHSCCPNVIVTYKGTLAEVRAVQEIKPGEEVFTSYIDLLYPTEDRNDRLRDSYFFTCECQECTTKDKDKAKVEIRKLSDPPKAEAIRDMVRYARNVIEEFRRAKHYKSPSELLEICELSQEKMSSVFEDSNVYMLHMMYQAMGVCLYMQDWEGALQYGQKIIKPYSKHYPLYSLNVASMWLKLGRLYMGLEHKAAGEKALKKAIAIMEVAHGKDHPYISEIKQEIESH

Myc-SMYD2 (from UniProt Q9NRG4 1-433) (enzyme)
binding: binds

B1: Myc-SMYD3 (enzyme, UniProt Q9H7B4 1-428)
chain: MEPLKVEKFATAKRGNGLRAVTPLRPGELLFRSDPLAYTVCKGSRGVVCDRCLLGKEKLMRCSQCRVAKYCSAKCQKKAWPDHKRECKCLKSCKPRYPPDSVRLLGRVVFKLMDGAPSESEKLYSFYDLESNINKLTEDKKEGLRQLVMTFQHFMREEIQDASQLPPAFDLFEAFAKVICNSFTICNAEMQEVGVGLYPSISLLNHSCDPNCSIVFNGPHLLLRAVRDIEVGEELTICYLDMLMTSEERRKQLRDQYCFECDCFRCQTQDKDADMLTGDEQVWKEVQESLKKIEELKAHWKWEQVLAMCQAIISSNSERLPDINIYQLKVLDCAMDACINLGLLEEALFYGTRTMEPYRIFFPGSHPVRGVQVMKVGKLQLHQGMFPQAMKNLRLAFDIMRVTHGREHSLIEDLILLLEECDANIRAS
binding: no binding

B2: Myc-SMYD4 (enzyme, UniProt Q8IYR2 1-804)
chain: MDLPVDEWKSYLLQKWASLPTSVQVTISTAETLRDIFLHSSSLLQPEDELFLKRLSKGYLVGKDSDAPLFYREEGNKKFQEKDYTGAAVLYSKGVSHSRPNTEDMSLCHANRSAALFHLGQYETCLKDINRAQTHGYPERLQPKIMLRKAECLVALGRLQEASQTISDLERNFTATPALADVLPQTLQRNLHRLKMKMQEKDSLTESFPAALAKTLEDAALREENEQLSNASSSIGLCVDPLKGRCLVATKDILPGELLVQEDAFVSVLNPGELPPPHHGLDSKWDTRVTNGDLYCHRCLKHTLATVPCDGCSYAKYCSQECLQQAWELYHRTECPLGGLLLTLGVFCHIALRLTLLVGFEDVRKIITKLCDKISNKDICLPESNNQVKTLNYGLGESEKNGNIVETPIPGCDINGKYENNYNAVFNLLPHTENHSPEHKFLCALCVSALCRQLEAASLQAIPTERIVNSSQLKAAVTPELCPDVTIWGVAMLRHMLQLQCNAQAMTTIQHTGPKGSIVTDSRQVRLATGIFPVISLLNHSCSPNTSVSFISTVATIRASQRIRKGQEILHCYGPHKSRMGVAERQQKLRSQYFFDCACPACQTEAHRMAAGPRWEAFCCNSCGAPMQGDDVLRCGSRSCAESAVSRDHLVSRLQDLQQQVRVAQKLLRDGELERAVQRLSGCQRDAESFLWAEHAVVGEIADGLARACAALGDWQKSATHLQRSLYVVEVRHGPSSVEMGHELFKLAQIFFNGFAVPEALSTIQKAEEVLSLHCGPWDDEIQELQKMKSCLLDLPPTPVGPAL
binding: no binding

B3: Myc-SMYD5 (enzyme, UniProt Q6GMV2 1-418)
chain: MAASMCDVFSFCVGVAGRARVSVEVRFVSSAKGKGLFATQLIRKGETIFVERPLVAAQFLWNALYRYRACDHCLRALEKAEENAQRLTGKPGQVLPHPELCTVRKDLHQNCPHCQVMYCSAECRLAATEQYHQVLCPGPSQDDPLHPLNKLQEAWRSIHYPPETASIMLMARMVATVKQAKDKDRWIRLFSQFCNKTANEEEEIVHKLLGDKFKGQLELLRRLFTEALYEEAVSQWFTPDGFRSLFALVGTNGQGIGTSSLSQWVHACDTLELKPQDREQLDAFIDQLYKDIEAATGEFLNCEGSGLFVLQSCCNHSCVPNAETSFPENNFLLHVTALEDIKPGEEICISYLDCCQRERSRHSRHKILRENYLFVCSCPKCLAEADEPNVTSEEEEEEEEEEEGEPEDAELGDEMTDV
binding: no binding
